Assay results from article PMC7826263.
No constants are given. Whether binding was seen depends on the method and setting. In cells and extracts the contact can be indirect. Some results given as binding are weak or reduced against the parent protein; the word gives no strength.

Amino acid sequences for entries named in this document (tags omitted).
UniProt Q99708: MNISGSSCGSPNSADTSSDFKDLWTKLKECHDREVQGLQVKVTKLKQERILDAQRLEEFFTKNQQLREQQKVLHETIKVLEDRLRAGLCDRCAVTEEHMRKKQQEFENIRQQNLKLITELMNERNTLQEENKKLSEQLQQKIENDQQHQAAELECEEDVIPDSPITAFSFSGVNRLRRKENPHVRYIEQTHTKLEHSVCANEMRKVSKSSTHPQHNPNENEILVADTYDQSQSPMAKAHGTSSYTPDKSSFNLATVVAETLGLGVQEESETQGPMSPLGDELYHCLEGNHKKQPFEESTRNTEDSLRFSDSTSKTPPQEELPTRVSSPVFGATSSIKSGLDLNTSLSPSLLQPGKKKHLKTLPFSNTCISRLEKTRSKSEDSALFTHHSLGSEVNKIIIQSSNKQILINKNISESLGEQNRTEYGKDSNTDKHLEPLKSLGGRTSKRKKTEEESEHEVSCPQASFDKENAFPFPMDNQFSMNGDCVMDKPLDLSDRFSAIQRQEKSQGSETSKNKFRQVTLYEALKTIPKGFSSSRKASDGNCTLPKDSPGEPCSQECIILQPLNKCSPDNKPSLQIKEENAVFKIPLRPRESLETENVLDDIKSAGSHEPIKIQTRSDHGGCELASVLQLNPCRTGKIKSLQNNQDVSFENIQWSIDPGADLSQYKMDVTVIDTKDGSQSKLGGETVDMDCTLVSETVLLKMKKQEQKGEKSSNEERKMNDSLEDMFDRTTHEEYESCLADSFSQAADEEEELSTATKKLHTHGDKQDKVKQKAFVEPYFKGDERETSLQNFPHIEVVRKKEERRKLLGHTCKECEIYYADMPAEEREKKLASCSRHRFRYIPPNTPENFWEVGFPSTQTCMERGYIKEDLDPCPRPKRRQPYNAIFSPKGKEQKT

Target: GFP-CtIP-WT (siRNA-resistant N-terminally GFP-tagged CtIP, wildtype) (human) (UniProt Q99708)
Test: co-IP; GFP-Trap agarose IP of GFP-CtIP constructs from cell lysate (RIPA buffer with NEM, diluted to 150 mM NaCl; washes with 500 mM NaCl), immunoblot; some experiments after siRNA depletion of endogenous CtIP, S phase synchronisation or HU treatment for 4 h

B1: PIAS4 (E3 SUMO ligase), endogenous (protein, UniProt Q8N2W9 1-510)
chain: MAAELVEAKNMVMSFRVSDLQMLLGFVGRSKSGLKHELVTRALQLVQFDCSPELFKKIKELYETRYAKKNSEPAPQPHRPLDPLTMHSTYDRAGAVPRTPLAGPNIDYPVLYGKYLNGLGRLPAKTLKPEVRLVKLPFFNMLDELLKPTELVPQNNEKLQESPCIFALTPRQVELIRNSRELQPGVKAVQVVLRICYSDTSCPQEDQYPPNIAVKVNHSYCSVPGYYPSNKPGVEPKRPCRPINLTHLMYLSSATNRITVTWGNYGKSYSVALYLVRQLTSSELLQRLKTIGVKHPELCKALVKEKLRLDPDSEIATTGVRVSLICPLVKMRLSVPCRAETCAHLQCFDAVFYLQMNEKKPTWMCPVCDKPAPYDQLIIDGLLSKILSECEDADEIEYLVDGSWCPIRAEKERSCSPQGAILVLGPSDANGLLPAPSVNGSGALGSTGGGGPVGSMENGKPGADVVDLTLDSSSSSEDEEEEEEEEEDEDEEGPRPKRRCPFQKGLVPAC
For B1, the binding was “binds”.
